Data reported in patent US20090202993.
Where a protein sequence is shown, tags need not be part of it.

Assays:
Assay in all cases: enzyme reaction in vitro
[1] = molecular target: T1, T4 DNA polymerase (Enterobacteria phage T4) (UniProt P04415); details: hydrolyses RNA in hybrid and initiates DNA synthesis, lower synthesis than Phi29, purified recombinant protein, protein details: Fermentas, label: 5'-33P or 3'-32P RNA
T1 sequence (limits assumed): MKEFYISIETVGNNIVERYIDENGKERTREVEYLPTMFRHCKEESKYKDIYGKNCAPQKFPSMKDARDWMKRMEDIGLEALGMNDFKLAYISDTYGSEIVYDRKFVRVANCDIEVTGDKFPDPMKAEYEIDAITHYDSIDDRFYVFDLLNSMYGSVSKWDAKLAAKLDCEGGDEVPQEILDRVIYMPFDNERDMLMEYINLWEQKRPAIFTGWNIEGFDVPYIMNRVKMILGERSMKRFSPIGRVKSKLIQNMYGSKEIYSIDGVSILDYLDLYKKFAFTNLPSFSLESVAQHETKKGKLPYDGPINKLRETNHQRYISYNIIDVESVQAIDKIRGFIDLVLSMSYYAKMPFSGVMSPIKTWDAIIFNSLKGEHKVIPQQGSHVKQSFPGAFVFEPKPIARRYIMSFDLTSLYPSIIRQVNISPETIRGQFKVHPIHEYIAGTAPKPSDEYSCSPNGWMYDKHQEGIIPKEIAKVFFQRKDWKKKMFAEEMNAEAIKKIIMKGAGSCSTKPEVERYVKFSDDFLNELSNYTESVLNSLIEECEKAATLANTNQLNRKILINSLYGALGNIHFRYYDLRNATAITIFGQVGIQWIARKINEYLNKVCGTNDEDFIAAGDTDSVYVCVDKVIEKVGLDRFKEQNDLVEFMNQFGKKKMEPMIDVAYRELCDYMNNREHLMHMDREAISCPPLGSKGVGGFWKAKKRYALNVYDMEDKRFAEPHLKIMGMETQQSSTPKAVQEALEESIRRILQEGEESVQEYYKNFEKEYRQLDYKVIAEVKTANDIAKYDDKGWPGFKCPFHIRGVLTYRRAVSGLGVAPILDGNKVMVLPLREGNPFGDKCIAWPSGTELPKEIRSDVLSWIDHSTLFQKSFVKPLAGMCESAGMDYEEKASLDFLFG

[2] = molecular target: T2, Phi29 DNA polymerase (Bacillus phage phi29) (UniProt P03680); details: RNA 3' end processed into primer; RCA product with dNTPs; purified recombinant protein; protein details: Fermentas; label: 5'-33P or 3'-32P RNA; DNA:RNA hybrid
T2 sequence (limits assumed): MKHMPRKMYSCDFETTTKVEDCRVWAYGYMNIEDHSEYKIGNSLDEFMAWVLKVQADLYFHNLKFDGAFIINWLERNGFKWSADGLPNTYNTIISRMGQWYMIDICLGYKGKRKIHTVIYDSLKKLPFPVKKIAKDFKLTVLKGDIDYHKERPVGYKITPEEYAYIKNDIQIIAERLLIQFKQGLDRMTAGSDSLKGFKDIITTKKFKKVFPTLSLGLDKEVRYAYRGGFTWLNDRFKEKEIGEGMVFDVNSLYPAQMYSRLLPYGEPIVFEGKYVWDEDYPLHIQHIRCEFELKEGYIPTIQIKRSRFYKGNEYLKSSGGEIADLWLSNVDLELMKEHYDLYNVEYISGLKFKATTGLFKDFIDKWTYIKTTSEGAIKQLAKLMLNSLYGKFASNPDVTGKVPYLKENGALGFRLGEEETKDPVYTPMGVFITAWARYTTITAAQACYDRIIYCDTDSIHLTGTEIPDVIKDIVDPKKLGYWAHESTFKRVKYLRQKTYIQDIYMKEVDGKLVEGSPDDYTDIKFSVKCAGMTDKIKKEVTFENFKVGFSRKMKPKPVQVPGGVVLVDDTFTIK

[3] = molecular target: T3, T7 DNA polymerase (Enterobacteria phage T7) (UniProt P00581); details: without dNTPs degrades RNA to nucleotides or short oligos, no stop at hybrid, lower DNA synthesis than Phi29, purified recombinant protein, protein details: Fermentas, label: 5'-33P or 3'-32P RNA
T3 sequence (limits assumed): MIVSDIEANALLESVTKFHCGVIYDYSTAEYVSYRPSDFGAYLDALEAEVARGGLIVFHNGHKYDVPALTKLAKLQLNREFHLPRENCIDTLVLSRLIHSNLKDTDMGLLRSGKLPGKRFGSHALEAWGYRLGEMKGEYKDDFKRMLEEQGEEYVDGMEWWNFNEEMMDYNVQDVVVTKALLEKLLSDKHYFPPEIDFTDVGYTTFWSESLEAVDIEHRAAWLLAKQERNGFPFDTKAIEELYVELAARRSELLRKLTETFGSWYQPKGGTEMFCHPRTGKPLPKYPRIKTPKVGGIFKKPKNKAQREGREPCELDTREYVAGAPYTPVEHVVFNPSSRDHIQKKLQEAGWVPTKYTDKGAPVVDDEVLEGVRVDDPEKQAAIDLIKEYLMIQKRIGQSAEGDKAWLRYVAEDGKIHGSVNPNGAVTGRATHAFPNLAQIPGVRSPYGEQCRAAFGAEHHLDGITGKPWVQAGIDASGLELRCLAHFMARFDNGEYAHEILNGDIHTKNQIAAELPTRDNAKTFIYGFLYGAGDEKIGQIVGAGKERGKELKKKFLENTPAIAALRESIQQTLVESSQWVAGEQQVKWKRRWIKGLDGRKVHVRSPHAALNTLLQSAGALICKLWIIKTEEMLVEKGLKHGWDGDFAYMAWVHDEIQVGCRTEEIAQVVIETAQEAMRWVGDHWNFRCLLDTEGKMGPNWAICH

Measured: activity on this sequence

GGGAAAGCUUUACAUUUUCGCGAUACCGUCCAGCGACAUUCUUCCUCGGUACAUAAUCUCCUUUGGCGUUUCCCGAUGUCCGUCACGCACAUGGGAUCCCCGGGUACCGAG / ATGTCGCTGGACGGTAATGCTGCTGCTGTACTACGAGCGGTCTCCAGGAATGCGCATTTATGTACCGAGGAAGA [RNA2-PP2 hybrid]
active: all assays above
